Test results taken from US20150140125A1, “SYNERGISTIC CANCER THERAPY DRUG COMBINATIONS” (Life Plus, LLC, priority 2013, published 2015).
Some of these results come from one statement about several compounds together.

Tested on: human ovarian cancer cell line (A1847)
Assay: 3-D ovarian cancer cell cluster viability (Prestoblue fluorescence)
Assay type: cell-based
Conditions: agent alone
Experimental: 96-well cell culture plates were loaded with increasing doses of GZ17 (graph on left) within a row. The doses were each added to 8 rows of each plate for 8 replicates at each dose. Cell clusters were pipetted into each well, and exposed for 24 hours to GZ17. At the completion of 24 hours, the wells were treated with 20 microliters of Prestoblue and allowed to incubate for up to 4 hours. The plates were read at 2-4 different time points after exposure to Prestoblue ranging from 30 minutes to 4 hours. The one-hour time point was the most often used and reported. The plates were loaded into a Perkin Elmer Enspire plate reader and each well was excited at 490 nm and read at 560 nm wavelengths. Relative fluorescence for each well was read.
The human ovarian cancer cell line (A1847) was used to create miniature tumors by loading the individual cells in a micromold according to U.S. Pat. App. Pub. […] Cells were pipetted into the mold and allowed 2-3 days to form 3-D clusters, mimicking miniature tumors. Cell clusters were removed from the mold by washing and gentle pipetting. Cell clusters were placed in media containing 0.5% FBS. The clusters were dispensed into 96-well plates at a density of approximately 10-15 clusters per well. […]
The powder was reconstituted in deionized water and agitated to ensure substantial homogeneity.

## O=c1[nH]cc(F)c(=O)[nH]1 [fluorouracil]
  doses giving a statistically significant decrease in live cells: ≥ 3.16 µM
